In patent US9551722B2, “Amyloid binding agents” (The Regents of the University of California, priority 2009, dated 2017):
For at least one compound, name, drawing or mass did not settle the structure.

Chains of the proteins cited; added tags and fusions are not shown. Residues count along the entry.
UniProt P05067, 672-713 limits assumed: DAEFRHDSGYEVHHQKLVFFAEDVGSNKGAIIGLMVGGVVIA

What was measured:
[1] = target: T1, aggregated Aβ(1-42) peptides (Homo sapiens, UniProt P05067); test: Fluorescence of probes 27-31, 33 before and after mixing with aggregated Aβ42; assay type: binding; conditions: 4 μM probe; for Em. max (nm) after / Exc. max (nm) after / Fold increase (emission intensity after binding): 5 μM aggregated Aβ(1-42); for Em. max (nm) before / Exc. max (nm) before: nano-pure water (5% DMSO), without Aβ
T1 construct: preaggregated Aβ(1-42) peptides
Procedure: Aggregated Aβ peptide was prepared by dissolving Aβ(1-42) in PBS pH 7.4 to a final concentration of 100 μM. This solution was magnetically stirred at 1200 rpm for 3 days at room temperature. The 100 μM Aβ(1-42) stock solution in PBS was aliquoted and frozen at −10° C. for up to 4 weeks without noticeable change in its property. 15 μL of the pre-aggregated Aβ(1-42) was added to 285 μL of the probe (5% DMSO in nano-pure water) to attain a final concentration of 5 μM Aβ(1-42) and 4 μM of the probe. The solution was transferred to a […] cuvette and the fluorescent measured. FIGS. 9A-F show fluorescence excitation spectra of Cmpds 27-31 and 33, respectively.
LeVine III, H., Protein Sci. 1993, 2, (3), 404-410. Along these lines, we compared the fluorescent properties of 27-31 or 33 in aqueous solution with or without the presence of aggregated Aβ42 peptides. Specifically, we measured the fluorescent properties of each dye at 4 μM concentration in nano pure water, before and after mixing with aggregated Aβ42 peptide (final concentration peptide=5 μM). As it is shown in table 5, in all cases we observed a significant increase (3 to 9-fold) in the intensity of the emission spectra of the probes upon association with the aggregated amyloid peptides. This intensity increase was also accompanied with a blue shift in the emission spectra of around 5-50 nm. […] FIG. 9C provides a representative example of the fluorescent properties of compound 29.

[2] = target: T1, aggregated Aβ(1-42) peptides; test: Fluorescence spectra before and after mixing with preaggregated Aβ(1-42) (Cmpds 8a-8d, 11, 14, 19); assay type: binding
Description: An initial study to determine whether a compound can associate with aggregated Aβ is to compare its fluorescence spectra before and after mixing with the Aβ aggregates. See E. E. Nesterov, J. Skoch, B. T. Hyman, W. E. Klunk, B. J. Bacskai, T. M. Swager, Angew. Chem. Int. Edit. 2005, 44:5452-5456; Z. P. Zhuang, M. P. Kung, H. F. Kung, J. Med. Chem. 2006, 49:2841-2844; Q. A. Li, J. S. Lee, C. Ha, C. B. Park, G. Yang, W. B. Gan, Y. T. Chang, Angew. Chem. Int. Edit. 2004, 43:6331-6335; H. F. Kung, C. W. Lee, Z. P. Zhuang, M. P. Kung, C. Hou, K. Plossl, J. Am. Chem. Soc. 2001, 123:12740-12741. […] See H. LeVine III, Protein Sci. 1993, 2:404-410. Along these lines we measured the fluorescent properties of each compound at 4 μM concentration before and after mixing with preaggregated Aβ(1-42) peptides (5 μM, aggregated in PBS buffer for 3 days at 25° C.).
Aggregated Aβ peptide was prepared by dissolving Aβ(1-42) in PBS pH 7.4 to a final concentration of 100 μM. This solution was magnetically stirred at 1200 rpm for 3 days at room temperature. The 100 μM Aβ(1-42) stock solution in PBS was aliquoted and frozen at […] for up to 4 weeks without noticeable change in its property. 150 μL of pre-aggregated Aβ(1-42) was added to 2.85 mL of compound to attain a final concentration of 5 μM Aβ(1-42) and 4 μM of compound. The solution was transferred to 3 mL cuvette and the fluorescence measured at 25° C. […] The fluorescence excitation spectra of Cmpds 8a, 8b, 8c, 14 and 19 are depicted in FIG. 4, respectively.

[3] = tested on: amyloid plaques in human tissue from AD cases; test: Fluorescence imaging of amyloid plaques in tissue sections; conditions: frozen AD tissue sections, probe solution 30 min, washed with water
Procedure: FIGS. 11A-F depict fluorescence images of amyloid plaques in human tissue from AD cases. After the frozen tissue was sectioned and mounted to a glass slide, the tissue was exposed to a solution containing a fluorescent probe for 30 min. The sample was washed with water to eliminate non-specific staining of the tissue, and imaged using an inverted epi-fluorescence microscope. The images reveal the location of plaques that were stained with A) compound 27, B) compound 28, C) compound 29, D) compound 30, E) compound 31, or F) compound 33.

[4] = 4 μM compound in PBS, without Aβ, 25° C.
[5] = 4 μM compound, 5 μM aggregated Aβ(1-42), PBS, 25° C.

Row | SMILES | Em. max (nm) after [1] [nm] | Exc. max (nm) after [1] [nm] | Fold increase (emission intensity after binding) [1] [fold] | Em. max (nm) before [1] [nm] | Exc. max (nm) before [1] [nm] | Emission max before binding [2, 4] [nm] | Excitation max before binding [2, 4] [nm] | Fold increase (fluorescence intensity after binding) ([2]; 4 μM compound, 5 μM aggregated Aβ(1-42)) [fold] | Emission max after binding [2, 5] [nm] | Excitation max after binding [2, 5] [nm] | Staining of amyloid plaques (fluorescence image) [3]
1 | COCCOCCOCCOC(=O)/C(C#N)=C/c1ccc2cc(N3CCCCC3)ccc2c1 [Compound 27, (E)-2-(2-(2-methoxyethoxyl)ethoxy)ethyl 2-cyano-3-(2-(piperidin-1-yl)napthalen-6-yl)acrylate] | 545 | 410 | 7.7 | 590 | 415 |  |  |  |  |  | 
2 | COCCOCCOCCOC(=O)/C(C#N)=C/c1ccc(/C=C/c2ccc(N(C)C)cc2)cc1 [Cmpd 19, (E)-2-(2-(2-methoxyethoxyl)ethoxy)ethyl-cyano-3-(4-(4(dimethylamino)styryl)phenyl)acrylate] |  |  |  |  |  | 658 | 312 | 2.3 | 638 | 319 | 
3 | COCCOCCOCCOCCOC(=O)/C(C#N)=C/c1ccc2cc(N3CCCCC3)ccc2c1 [Compound 31, (E)-2-(2-(2-(2-methoxyethoxyl)ethoxy)ethoxy)ethyl 2-cyano-3-(2-(piperidin-1-yl)napthalen-6-yl) acrylate] | 546 | 410 | 8.3 | 590 | 420 |  |  |  |  |  | stained
